Some of these results come from one statement about several compounds together.
Experiments:
[1] = target: T1, hLAIR-1-CD3ζ chimera (Homo sapiens, UniProt Q6GTX8); assay: 2B4 NFAT-GFP reporter cell assay, hLAIR-1-CD3ζ chimera; type: cell-based; details: plate-bound peptide, 22 hours
T1 construct: a chimeric protein consisting of the extracellular domain of hLAIR-1 fused to the transmembrane and intracellular domain of CD3ζ; expressed in transfected cells; host or cells: Mouse 2B4 NFAT-GFP reporter T cell hybridoma, pMX puro retroviral vector
T1 sequence (Q6GTX8 22-165 limits assumed): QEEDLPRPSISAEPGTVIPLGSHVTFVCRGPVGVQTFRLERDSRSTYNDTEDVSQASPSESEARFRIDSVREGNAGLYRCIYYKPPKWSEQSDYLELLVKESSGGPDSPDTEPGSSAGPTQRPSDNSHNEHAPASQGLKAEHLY
Experimental: For detection of LAIR-1 ligands: 2B4 T cell hybridoma cells stably transduced with an NFAT-GFP reporter and hLAIR-1-CD3ζ were analyzed as described (11).
2B4 T cell hybridoma cells were stably transduced with an NFAT-GFP reporter construct(40) and hLAIR-1-CD3ζ(15) and analyzed as described(15, 40).

[2] = target: T2, hLAIR-1 expressed on K562 cells (Homo sapiens, UniProt Q6GTX8); assay: K562 cell adhesion assay on plate-bound collagens or synthetic trimeric peptides; type: cell-based; details: immobilized peptides coated at 10 μg/ml
T2 construct: expressed in transfected cells; host or cells: K562 (human erythroleukemia), retroviral vector
T2 sequence (Q6GTX8 22-287): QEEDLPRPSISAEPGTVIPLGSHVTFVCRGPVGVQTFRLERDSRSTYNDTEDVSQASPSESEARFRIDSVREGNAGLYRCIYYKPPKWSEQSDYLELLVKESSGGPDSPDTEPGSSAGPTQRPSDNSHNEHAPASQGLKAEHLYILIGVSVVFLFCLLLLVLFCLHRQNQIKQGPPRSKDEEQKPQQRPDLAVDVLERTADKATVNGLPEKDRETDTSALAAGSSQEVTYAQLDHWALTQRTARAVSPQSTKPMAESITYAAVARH

GFP-positive hLAIR-1-CD3ζ reporter cells [1] [%] | adherence of K562 hLAIR-1 cells (percentage of adhering cells relative to input) [2] [%] | Substance
> 10 | > 10 | GPC(GPP)5-GPRGRSGETGPAGPOGNOGPOGPOGPO-(GPP)5GPC-NH2 [II-56]
> 10 | > 10 | GPC(GPP)5-GAOGLRGGAGPOGPEGGKGAAGPOGPO-(GPP)5GPC-NH2 [III-30]
> 10 | > 10 | GPC(GPP)5-GPOGMOGPRGSOGPQGVKGESGKOGAN-(GPP)5GPC-NH2 [III-45]

— patent publication US20090304686A1, “INTERFERING IN ACTIVATION OF AN IMMUNE CELL BY INFLUENCING INTERACTION OF LAIR AND COLLAGEN” (UNIVERSOTAIR MEDISCH CENTRUM UTRECHT, priority 2006, published 2009)
